Literature values in patent US20040067904A1, “Gene therapy for prostate cancer: sensibilization of cells to dna damaging drugs and radiation” (priority 2003, published 2004).
For at least one compound, name, drawing or mass did not settle the structure.

Test system: PARP mRNA
Conditions: cited from earlier work

For `C[C@@H]1C[C@H]2[C@@H]3CCC4=CC(=O)C=C[C@]4(C)[C@@]3(F)[C@@H](O)C[C@]2(C)[C@@]1(O)C(=O)CO` [dexamethasone], the “reduction of the amount of PARP mRNA” value (cells with dexamethasone-inducible PARP antisense cDNA) is given as “approximately 5 % of the original value” and the “effect on PARP expression” value (control cells) is given as “no effect”.
